Data from PMC7809799, “A microtubule‐LUZP1 association around tight junction promotes epithelial cell apical constriction” (The EMBO Journal, 2020).

Target: T1, LUZP1 (endogenous, Eph4 cells) (mouse (endogenous in Eph4)) (UniProt Q8R4U7)
T1 sequence: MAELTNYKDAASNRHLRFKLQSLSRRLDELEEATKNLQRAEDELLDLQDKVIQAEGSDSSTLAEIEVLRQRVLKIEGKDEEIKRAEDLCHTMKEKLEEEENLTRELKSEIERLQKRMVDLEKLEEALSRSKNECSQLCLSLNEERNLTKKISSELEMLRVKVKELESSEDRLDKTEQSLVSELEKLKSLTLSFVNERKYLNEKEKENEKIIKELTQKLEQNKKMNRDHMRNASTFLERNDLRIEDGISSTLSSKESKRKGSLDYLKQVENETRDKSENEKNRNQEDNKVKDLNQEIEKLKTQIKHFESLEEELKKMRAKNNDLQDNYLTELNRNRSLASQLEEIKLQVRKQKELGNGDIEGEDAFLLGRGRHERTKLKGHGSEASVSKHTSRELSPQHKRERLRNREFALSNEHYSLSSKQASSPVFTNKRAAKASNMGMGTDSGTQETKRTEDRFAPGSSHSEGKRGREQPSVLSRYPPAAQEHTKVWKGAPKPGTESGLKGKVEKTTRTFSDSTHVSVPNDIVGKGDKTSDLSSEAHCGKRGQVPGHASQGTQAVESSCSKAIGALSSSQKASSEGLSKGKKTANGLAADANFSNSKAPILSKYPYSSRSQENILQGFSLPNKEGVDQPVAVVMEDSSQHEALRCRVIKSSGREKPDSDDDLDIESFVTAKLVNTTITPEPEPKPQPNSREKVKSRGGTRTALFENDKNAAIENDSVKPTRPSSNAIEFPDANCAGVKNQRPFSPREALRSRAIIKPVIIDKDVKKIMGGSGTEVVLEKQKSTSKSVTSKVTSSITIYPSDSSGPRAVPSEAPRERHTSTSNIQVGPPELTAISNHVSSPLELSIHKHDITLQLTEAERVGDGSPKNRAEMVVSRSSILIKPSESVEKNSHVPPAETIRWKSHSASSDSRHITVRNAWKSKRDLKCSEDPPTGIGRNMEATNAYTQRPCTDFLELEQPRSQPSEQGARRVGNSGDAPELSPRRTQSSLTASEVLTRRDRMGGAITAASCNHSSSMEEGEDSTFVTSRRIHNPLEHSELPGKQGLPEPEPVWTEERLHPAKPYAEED
Test: co-IP; WT Eph4 cells, endogenous proteins, immunoprecipitation with the anti‐LUZP1 antibody, immunoblotting

binding	Substance
binds	myosin light chain (endogenous, Eph4 cells) (mouse (endogenous in Eph4))
binds	α‐tubulin (endogenous, Eph4 cells) (mouse (endogenous in Eph4))

These are yes or no findings as the source states them, for the method shown. In cells and extracts the contact can be indirect. Binding can be weak; no strength is given.
